Reference: PubChem BioAssay AID2284381 (EPA ToxCast)
The inconclusive results got no clear call from the source; some entries with a clear call stand among them for comparison. Where the call is inconclusive, the potency comes from a doubtful curve fit. Calls of active or inactive are those of the source. The calls were made as follows: active = hit-call score of the fitted dose curve at least 0.9, where 1 is the maximum; inconclusive = response in the unintended direction; inactive = score below 0.9.

System: Japanese medaka Retinoid X Receptor beta (RXRb), gene 100125505
Assay: ATG_jmRXRb_EcoTox2: Attagene TRANS-FACTORIAL EcoTox-2 HepG2 Assay for Japanese medaka Retinoid X Receptor beta (RXRb)
Experimental: ATG_EcoTox2 is a cell-based, multiplexed assay created by modifying the existing Attagene TRANS-FACTORIAL system to include a panel of nuclear receptors from some or all the following species: human (Homo sapiens), african clawed frog (Xenopus laevis), rainbow trout (Oncorhynchus mykiss), japanese medaka (Oryzias latipes), and zebrafish (Danio rerio). The ECOTOX2-FACTORIAL format uses HepG2, a human liver cell line, with measurements taken at 24 hours after chemical dosing in a 24-well plate. ATG_jmRXRb_EcoTox2 is one of 29 assay components calculated in the ATG_EcoTox2 assay. It is designed to make measurements of mRNA induction, a form of inducible reporter, as detected with fluorescence intensity signals by Reverse transcription polymerase chain reaction (RT-PCR) and Capillary electrophoresis technology.The assay endpoint ATG_jmRXRb_EcoTox2 was analyzed in the positive analysis fitting direction relative to DMSO as the negative control and baseline of activity. Using a type of inducible reporter, measures of mRNA for gain-of-signal activity can be used to understand the reporter gene at the transcription factor-level as they relate to the gene RXRb. Furthermore, this assay endpoint can be referred to as a primary readout, because this assay has produced multiple assay endpoints where this one serves a reporter gene function. […]

| Compound | AC50 |
| --- | --- |
| [Cl][Sn]([c]1ccccc1)([c]1ccccc1)[c]1ccccc1 | active: 0.171 µM |
| O=S(=O)(O)C(F)(F)C(F)(F)C(F)(F)C(F)(F)C(F)(F)C(F)(F)F | inconclusive: 0.00235 µM |
